“Also recorded” adds a separate entry of the source.
System: GBR complex ([35S]TBPS site)
Experiment: dissociation kinetics of [35S]TBPS in cortical P2 homogenates
Type: binding, rat
Description: An assay was performed to determine the effect of pentobarbital on the dissociation kinetics of [^35 S]TBPS in rat cerebral cortical membranes. This assay was performed in accordance with the procedures outlined above. […] Dissociation of bound [^35 S]TBPS was initiated by 2 micromolar TBPS in all cases.

CC(=O)[C@H]1CC[C@H]2[C@@H]3CC[C@H]4C[C@H](O)CC[C@]4(C)[C@H]3C(=O)C[C@]12C [5α-PREGNAN-3α-OL- 11,20-DIONE]
Total percentage of specific sites, rapidly dissociating (R) ((**P < 0.01 vs control), alphaxalone 300 nM, 3a-OH-DHP 20 nM): 34 ± 5 percentage | Total percentage of specific sites, slowly dissociating (S) ((*P < 0.05 vs control), alphaxalone 300 nM, 3a-OH-DHP 20 nM): 73 ± 4 percentage | k-1, rapidly dissociating component (R) ([35S]TBPS dissociation, alphaxalone 300 nM, 3a-OH-DHP 20 nM): 0.180 min⁻¹ | k-1, slowly dissociating component (S) ([35S]TBPS dissociation, pentobarbital 30 nM [sic], alphaxalone 300 nM, 3a-OH-DHP 20 nM): 0.0120 min⁻¹ | effect on dissociation mechanism/kinetics of [35S]TBPS (in words) (pentobarbital 30 micromolar, alphaxalone 300 nanomolar, 5-alpha-pregnan-3-alpha-hydroxy-20-one 20 nanomolar): absent; also recorded: do not influence the dissociation kinetics
